Results taken from patent publication US4496655A, “Process for the production of tyramine oxidase” (Toyo Jozo Kabushiki Kaisha, priority 1981, dated 1985).
At least one structure is not confirmed: it was looked up by name or label, or the drawing left a doubt.

System: tyramine oxidase
Assay: Substrate specificity of tyramine oxidase
Type: biochemical, Arthrobacter sp. B-0813
Method: An enzyme solution (0.05 ml) is added to a reaction mixture (0.5 ml) consisting of the following, and the volume is increased to 1.0 ml by adding water and the mixture is incubated at 37° C. for 10 minutes.
Water (0.1 ml) is added in place of enzyme solution as a control. The reaction mixture is measured at 490 nm.
Enzyme activity is calculated by the following equation: [formula] wherein Δ490 nm is the absorption value at Δ490 nm for 10 minutes, and f is the dilution ratio.
Substrate specificity was measured by adding various substrates to the reaction mixture.

CC(C)C[C@H](N)C(=O)NCCc1ccc(O)cc1 [L-leucyltyramine]
Activity of the enzyme on the substrate (in words): does not act
